# Assay results reported in patent publication US8471061B2 (priority 2004, dated 2013).
# Design: key to smell evaluation: 0: Not smelled.; 1: Smelled but not unpleasant.; 2: Unpleasant smell
# [1] = Aqueous solution (mixed liquid of column eluate and acid; hydrochloride at same molar concentrations), one score per subject, five subjects
# [2] = Solid, one score per subject, five subjects
# [3] = aqueous solution of 0.5 g in 1 ml of water, one score per subject A-E
SMILES,smell evaluation [1],smell evaluation [2],"smell evaluation (aqueous solution of 0.5 g in 1 ml of water, one score per subject A-E, listed as Comparative Example 2, hydrochloride)","smell evaluation (aqueous solution of 0.5 g in 1 ml of water, one score per subject A-E, listed as Comparative Example 6, hydrochloride)","smell evaluation (aqueous solution of 0.5 g in 1 ml of water, one score per subject A-E, listed as Comparative Example 8, hydrochloride)",smells of aqueous solution in comparison with hydrochloride,smell evaluation [3],smells of solid in comparison with hydrochloride
"Cl.NCC(=O)CCC(=O)O [5-aminolevulinic acid hydrochloride, reference compound]",2,1,1 (3×) and 0 (2×),1 (3×) and 0 (2×),1 (3×) and 0 (2×),–,–,–
"NCC(=O)CCC(=O)O.O=[N+]([O-])O [5-aminolevulinic acid nitrate, 5-aminolevulinic Acid Nitrate]",0,0,–,–,–,smells were not found,0,generated no smells
"Cc1ccc(S(=O)(=O)O)cc1.NCC(=O)CCC(=O)O [5-aminolevulinic acid p-toluenesulfonate, 5-aminolevulinic Acid p-toluenesulfonate]",0,0,–,–,–,smells were not found,0,generated no smells
"NCC(=O)CCC(=O)O.O=P(O)(O)O [5-aminolevulinic acid phosphate, 5-aminolevulinic Acid Phosphate]",0,0,–,–,–,smells were not found,0,generated no smells

# Values joined by “and” are separate entries in the source; they are usually repeats but may differ in a detail not shown here. Identical values can stand only once. Like-named read-outs stand apart in the source and are kept apart here.
